Results taken from US20050288225A1.
No constants are given. Whether binding was seen depends on the method and setting. For part of these data: In cells and extracts the contact can be indirect. Some entries that bind do so weakly or less than the wild type. For part of these data: Sequences can lack the tags named with a protein.

By UniProt entry, the sequences of proteins in these tests, tags left out. Where a name states a change or a piece, a line headed by the entry shows the natural chain unless it says otherwise.
UniProt P10415: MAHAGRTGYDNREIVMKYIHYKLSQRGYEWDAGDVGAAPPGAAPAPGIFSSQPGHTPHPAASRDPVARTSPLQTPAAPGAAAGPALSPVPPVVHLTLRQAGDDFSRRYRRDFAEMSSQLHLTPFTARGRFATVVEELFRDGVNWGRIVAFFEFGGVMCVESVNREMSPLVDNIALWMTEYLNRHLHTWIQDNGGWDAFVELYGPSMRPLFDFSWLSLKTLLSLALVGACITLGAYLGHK
UniProt O43353: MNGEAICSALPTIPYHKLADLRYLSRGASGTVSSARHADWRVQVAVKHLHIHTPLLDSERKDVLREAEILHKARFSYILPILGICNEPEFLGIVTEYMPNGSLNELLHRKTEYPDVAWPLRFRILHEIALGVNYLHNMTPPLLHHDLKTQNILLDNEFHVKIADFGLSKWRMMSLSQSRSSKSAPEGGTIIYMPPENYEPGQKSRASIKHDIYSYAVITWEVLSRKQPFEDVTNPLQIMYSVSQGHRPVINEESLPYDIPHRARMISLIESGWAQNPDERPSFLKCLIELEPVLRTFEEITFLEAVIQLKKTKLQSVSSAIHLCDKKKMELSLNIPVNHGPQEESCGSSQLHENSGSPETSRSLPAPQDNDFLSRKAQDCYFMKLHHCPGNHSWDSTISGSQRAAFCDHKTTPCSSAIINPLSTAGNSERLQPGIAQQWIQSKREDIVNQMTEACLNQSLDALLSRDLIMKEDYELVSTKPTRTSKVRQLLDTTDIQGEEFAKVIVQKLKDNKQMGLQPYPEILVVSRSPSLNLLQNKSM

Columns and labels:
[1] = biological target: T1, Flag-tagged TRAF1 (UniProt Q13077); assay: co-immunoprecipitation from transfected 293 cells (legend of FIG. 8)
T1 sequence (looked up): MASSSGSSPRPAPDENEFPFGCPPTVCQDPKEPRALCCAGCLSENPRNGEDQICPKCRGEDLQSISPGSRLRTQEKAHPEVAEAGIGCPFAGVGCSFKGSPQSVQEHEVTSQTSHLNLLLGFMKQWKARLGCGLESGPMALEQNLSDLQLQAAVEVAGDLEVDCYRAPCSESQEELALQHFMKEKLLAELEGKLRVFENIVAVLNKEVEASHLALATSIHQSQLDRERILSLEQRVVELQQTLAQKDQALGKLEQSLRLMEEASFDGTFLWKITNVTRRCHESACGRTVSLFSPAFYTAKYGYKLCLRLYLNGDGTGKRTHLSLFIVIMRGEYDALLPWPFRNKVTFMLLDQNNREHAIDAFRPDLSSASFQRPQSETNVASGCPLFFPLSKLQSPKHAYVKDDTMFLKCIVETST

[2] = biological target: T1, Flag-tagged TRAF1; assay: co-immunoprecipitation from transfected 293 cells: anti-FLAG IP, anti-HA western blot
[3] = biological target: BCL2 (UniProt P10415); assay: yeast two-hybrid binding assay

Substance	binding [1]	binding [2]	binding [3]
HA-tagged B1 protein (from UniProt O43353 1-540) (enzyme)	binds	binds	–
truncated B1 having only the intermediate region and the C-terminal CARD region (from UniProt O43353 315-540)	–	–	binds
